Reference: US6413953B1, “Pt(IV) antitumor agent” (AnorMED Inc., priority 1999, dated 2002)

assay: Combined solubility, activity comparison with Pt(II) analog; conditions: mean over six cell lines; larger is more optimal

Row | SMILES | mean ratio of (SolPt(IV)/SolPt(II)) over (IC50-Pt(IV)/IC50-Pt(II))
1 | CC(=O)[O][Pt]([OH])([Cl])[O]C(C)=O.Cc1ccccn1.N [Compound C] | 6.5
2 | CC(=O)[O][Pt]([OH])([Cl])[O]C(C)=O.Cc1ccccn1.N [Compound E] | 2.7
3 | Cc1cccc[n+]1[Pt-2]([NH3+])([OH])([OH])([Cl])[Cl] [Compound B] | 3.2
